Here are results for two compounds from the M2OR odorant receptor database.

Chains of the proteins cited; added tags and fusions are not shown. A line that says so, or that is headed by a name, gives the form on record, which may keep a tag or linker.
OR1E2, as listed by the source: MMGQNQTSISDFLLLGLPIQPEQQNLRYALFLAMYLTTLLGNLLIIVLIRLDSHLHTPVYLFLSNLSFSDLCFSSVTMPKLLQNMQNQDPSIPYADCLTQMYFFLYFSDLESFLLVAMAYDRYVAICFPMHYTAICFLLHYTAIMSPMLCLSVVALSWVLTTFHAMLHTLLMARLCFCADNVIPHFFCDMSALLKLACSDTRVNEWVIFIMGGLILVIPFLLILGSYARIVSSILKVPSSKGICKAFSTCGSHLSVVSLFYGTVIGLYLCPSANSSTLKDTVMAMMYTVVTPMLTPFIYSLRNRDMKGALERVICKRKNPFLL
OR1A1, as listed by the source: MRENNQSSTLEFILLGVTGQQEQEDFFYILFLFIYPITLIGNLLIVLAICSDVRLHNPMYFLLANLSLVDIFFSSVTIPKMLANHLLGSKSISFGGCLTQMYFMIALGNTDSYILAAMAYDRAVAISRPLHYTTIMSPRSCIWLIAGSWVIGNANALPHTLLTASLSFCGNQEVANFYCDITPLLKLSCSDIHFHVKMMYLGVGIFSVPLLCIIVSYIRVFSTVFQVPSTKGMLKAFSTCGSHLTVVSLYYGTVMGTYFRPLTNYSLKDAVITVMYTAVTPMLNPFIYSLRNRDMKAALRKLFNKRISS

Numbering of substitutions follows the chain as printed. The entries are a selection whose mix differs from that of the whole data set. The calls were merged from several studies; some rest on single wells. The list shows a part of the results. This is one part of the list.

Holding throughout (settings): stereoisomer not certain
One experiment addresses T1, OR13C3 (Homo sapiens) (UniProt Q8NGS6).
T1 sequence (whole entry): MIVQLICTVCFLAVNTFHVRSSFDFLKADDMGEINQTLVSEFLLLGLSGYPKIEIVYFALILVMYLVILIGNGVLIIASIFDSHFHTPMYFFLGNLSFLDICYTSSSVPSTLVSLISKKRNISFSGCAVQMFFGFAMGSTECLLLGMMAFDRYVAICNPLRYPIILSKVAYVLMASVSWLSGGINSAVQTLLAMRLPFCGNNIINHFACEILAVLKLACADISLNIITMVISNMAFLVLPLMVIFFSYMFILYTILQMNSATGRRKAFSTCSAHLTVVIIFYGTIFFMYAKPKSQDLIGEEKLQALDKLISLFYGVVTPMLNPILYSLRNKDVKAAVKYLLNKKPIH
The gist of the method: (§1)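 Transient luciferase assays in mammalian cell lines were common, though methods varied by source. The values come from published papers and their supplementary material, with extra details from the original authors when needed. Responsive refers to a measured signal the original authors judged statistically different from baseline, and non-responsive (inactive) to the remainder.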

The next experiment has as its target T2, OR13C4 (Homo sapiens) (UniProt Q8NGS5).
T2 sequence (whole entry): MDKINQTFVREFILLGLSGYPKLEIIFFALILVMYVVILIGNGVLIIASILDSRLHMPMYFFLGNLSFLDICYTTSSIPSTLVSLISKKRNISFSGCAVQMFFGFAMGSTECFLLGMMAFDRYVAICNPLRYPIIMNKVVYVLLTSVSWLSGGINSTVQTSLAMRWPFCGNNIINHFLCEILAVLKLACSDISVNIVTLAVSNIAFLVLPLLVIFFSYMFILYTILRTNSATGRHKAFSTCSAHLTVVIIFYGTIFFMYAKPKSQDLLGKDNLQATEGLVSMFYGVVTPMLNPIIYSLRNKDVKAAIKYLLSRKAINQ
Summed up: as §1

The target of the next experiment is T3, OR13C8 (Homo sapiens) (UniProt Q8NGS7).
T3 sequence (whole entry): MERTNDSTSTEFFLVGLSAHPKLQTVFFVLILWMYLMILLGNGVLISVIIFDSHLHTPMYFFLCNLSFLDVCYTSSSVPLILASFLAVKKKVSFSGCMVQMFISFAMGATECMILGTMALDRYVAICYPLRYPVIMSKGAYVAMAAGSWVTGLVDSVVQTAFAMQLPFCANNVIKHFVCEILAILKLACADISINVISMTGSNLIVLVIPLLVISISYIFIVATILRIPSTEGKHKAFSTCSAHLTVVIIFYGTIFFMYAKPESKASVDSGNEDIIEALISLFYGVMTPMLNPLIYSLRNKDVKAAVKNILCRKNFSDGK
The gist of the method:
as §1

The next experiment concerns the target T4, OR13H1 (Homo sapiens) (UniProt Q8NG92).
T4 sequence (whole entry): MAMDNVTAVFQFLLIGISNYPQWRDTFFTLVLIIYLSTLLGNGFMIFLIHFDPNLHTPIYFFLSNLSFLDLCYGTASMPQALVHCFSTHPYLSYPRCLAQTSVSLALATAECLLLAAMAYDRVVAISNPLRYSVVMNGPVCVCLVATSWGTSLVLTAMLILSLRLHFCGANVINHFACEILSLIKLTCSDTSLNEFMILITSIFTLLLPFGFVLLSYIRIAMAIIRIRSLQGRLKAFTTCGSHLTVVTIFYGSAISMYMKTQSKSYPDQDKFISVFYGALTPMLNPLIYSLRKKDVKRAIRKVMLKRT
Summed up:
as §1

For a further experiment, the target named is T5, OR14J1 (Homo sapiens) (UniProt Q9UGF5).
T5 sequence (whole entry): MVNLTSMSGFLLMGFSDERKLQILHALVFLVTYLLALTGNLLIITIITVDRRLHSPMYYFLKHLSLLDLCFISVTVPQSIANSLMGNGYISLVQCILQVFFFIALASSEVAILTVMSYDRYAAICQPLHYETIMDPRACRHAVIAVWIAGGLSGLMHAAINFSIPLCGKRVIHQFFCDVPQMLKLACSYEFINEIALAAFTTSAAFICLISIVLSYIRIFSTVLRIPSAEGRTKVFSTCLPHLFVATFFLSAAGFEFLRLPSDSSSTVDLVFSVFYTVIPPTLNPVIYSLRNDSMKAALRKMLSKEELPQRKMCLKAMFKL
Summed up: as §1

The target in another experiment is T6, OR1A1 (Homo sapiens) (UniProt Q9P1Q5).
T6 sequence (whole entry): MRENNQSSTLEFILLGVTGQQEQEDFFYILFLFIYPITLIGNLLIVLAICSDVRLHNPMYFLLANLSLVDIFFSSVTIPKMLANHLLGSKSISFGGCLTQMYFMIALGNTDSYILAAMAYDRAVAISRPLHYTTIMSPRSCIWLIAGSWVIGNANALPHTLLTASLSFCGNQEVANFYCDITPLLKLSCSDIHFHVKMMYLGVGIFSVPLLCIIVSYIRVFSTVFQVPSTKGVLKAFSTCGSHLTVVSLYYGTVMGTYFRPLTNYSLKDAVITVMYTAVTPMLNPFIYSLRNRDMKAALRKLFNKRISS
Summed up: as §1

Experiment [1] concerns T7, OR1A1.
T7 sequence (whole entry): T6 sequence (whole entry) with R128H
The gist of the method: as §1

The test system of experiment [2] is T8, OR1A1.
T8 sequence (whole entry): T6 sequence (whole entry) with V233M
The gist of the method:
as §1
This is another data set of the same source.

For experiment [3], the system named is T9, OR1A1.
T9 sequence (whole entry): T6 sequence (whole entry) with P285S
The gist of the method: as §1
The source holds these as a separate data set.

The target in another experiment is T10, OR1A2 (Homo sapiens) (UniProt Q9Y585).
T10 sequence (whole entry): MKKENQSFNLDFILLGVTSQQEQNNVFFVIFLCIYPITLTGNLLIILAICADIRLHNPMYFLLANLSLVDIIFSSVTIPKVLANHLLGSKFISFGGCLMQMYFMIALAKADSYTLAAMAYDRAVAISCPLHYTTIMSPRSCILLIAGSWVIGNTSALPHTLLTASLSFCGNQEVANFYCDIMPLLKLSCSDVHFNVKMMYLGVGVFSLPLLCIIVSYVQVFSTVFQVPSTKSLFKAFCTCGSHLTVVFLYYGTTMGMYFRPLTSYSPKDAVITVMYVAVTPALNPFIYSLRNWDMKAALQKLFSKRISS
Summed up: as §1

The target in another experiment is T11, OR1C1 (Homo sapiens) (UniProt Q15619).
T11 sequence (whole entry): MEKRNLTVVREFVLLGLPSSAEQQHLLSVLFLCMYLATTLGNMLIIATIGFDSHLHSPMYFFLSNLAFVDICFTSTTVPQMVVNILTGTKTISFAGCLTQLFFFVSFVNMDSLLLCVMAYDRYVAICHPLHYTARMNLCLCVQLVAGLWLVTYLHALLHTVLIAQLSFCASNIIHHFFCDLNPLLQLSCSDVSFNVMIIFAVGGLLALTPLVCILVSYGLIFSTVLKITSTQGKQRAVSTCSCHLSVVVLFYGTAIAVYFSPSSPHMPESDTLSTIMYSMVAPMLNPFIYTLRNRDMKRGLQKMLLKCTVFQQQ
Summed up:
as §1

The target in the next experiment is T12, OR1D2 (Homo sapiens) (UniProt P34982).
T12 sequence (whole entry): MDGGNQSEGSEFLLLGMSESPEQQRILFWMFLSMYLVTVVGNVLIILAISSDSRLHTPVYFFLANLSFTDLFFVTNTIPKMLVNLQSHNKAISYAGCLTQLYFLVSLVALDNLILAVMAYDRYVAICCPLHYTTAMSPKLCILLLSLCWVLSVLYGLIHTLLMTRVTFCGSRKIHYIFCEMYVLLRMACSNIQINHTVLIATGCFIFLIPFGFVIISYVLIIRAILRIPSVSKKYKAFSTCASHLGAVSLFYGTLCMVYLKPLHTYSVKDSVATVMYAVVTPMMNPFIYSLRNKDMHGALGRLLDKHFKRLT
The gist of the method:
as §1

The target in the next experiment is T13, OR1D5 (Homo sapiens) (UniProt P58170).
T13 sequence (whole entry): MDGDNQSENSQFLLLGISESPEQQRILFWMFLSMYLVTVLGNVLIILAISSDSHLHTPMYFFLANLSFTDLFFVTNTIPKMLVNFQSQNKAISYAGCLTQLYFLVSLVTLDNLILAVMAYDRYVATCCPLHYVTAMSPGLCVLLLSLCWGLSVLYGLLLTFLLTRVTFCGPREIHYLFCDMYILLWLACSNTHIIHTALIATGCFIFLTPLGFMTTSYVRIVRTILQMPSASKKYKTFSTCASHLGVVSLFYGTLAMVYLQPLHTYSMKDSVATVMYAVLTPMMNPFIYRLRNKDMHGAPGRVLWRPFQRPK
Summed up: as §1

A further experiment concerns T14, OR1D5.
T14 sequence (whole entry): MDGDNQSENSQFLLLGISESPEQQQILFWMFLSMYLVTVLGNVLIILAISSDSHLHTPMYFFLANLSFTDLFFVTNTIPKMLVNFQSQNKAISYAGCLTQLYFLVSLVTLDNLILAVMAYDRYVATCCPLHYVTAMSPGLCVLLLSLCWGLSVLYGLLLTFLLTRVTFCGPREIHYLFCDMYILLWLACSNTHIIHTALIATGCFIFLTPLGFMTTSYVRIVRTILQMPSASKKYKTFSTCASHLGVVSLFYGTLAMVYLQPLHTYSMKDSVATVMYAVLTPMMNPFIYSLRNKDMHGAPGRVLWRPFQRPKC
Summed up:
as §1

Experiment [4] deals with T15, OR1E1.
T15 sequence (whole entry): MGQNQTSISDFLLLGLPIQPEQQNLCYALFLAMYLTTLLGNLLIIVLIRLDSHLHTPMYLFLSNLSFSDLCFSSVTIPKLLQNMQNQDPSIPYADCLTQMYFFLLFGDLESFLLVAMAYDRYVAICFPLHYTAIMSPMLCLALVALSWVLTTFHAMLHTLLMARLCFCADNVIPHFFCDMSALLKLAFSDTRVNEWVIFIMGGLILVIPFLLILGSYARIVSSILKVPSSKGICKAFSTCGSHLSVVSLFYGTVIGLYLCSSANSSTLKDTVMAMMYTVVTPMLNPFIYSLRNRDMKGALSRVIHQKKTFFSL
Summed up:
as §1

Experiment [5] deals with T16, OR1E1.
T16 sequence (whole entry): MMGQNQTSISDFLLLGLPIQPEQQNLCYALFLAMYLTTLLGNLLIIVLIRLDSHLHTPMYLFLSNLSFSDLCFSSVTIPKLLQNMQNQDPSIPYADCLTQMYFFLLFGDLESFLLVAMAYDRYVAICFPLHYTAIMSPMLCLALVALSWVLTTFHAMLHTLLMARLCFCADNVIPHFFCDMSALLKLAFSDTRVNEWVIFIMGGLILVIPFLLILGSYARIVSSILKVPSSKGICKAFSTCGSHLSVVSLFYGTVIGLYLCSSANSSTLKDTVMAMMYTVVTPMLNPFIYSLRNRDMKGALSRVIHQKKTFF
The gist of the method:
as §1
This is another data set of the same source.

The next experiment concerns the target T17, OR1E2 (Homo sapiens) (UniProt P47887).
T17 sequence (whole entry): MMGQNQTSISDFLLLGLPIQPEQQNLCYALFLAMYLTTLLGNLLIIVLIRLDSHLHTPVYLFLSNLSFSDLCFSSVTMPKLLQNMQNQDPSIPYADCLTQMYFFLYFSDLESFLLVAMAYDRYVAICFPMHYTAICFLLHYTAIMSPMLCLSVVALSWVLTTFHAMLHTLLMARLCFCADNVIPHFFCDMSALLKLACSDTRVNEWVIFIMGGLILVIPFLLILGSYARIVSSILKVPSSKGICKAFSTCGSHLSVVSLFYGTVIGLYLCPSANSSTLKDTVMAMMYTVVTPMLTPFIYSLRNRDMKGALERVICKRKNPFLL
Summed up: as §1

The subject of another experiment is T18, OR1E2.
T18 sequence (whole entry): T17 sequence (whole entry) with C27R
Summed up:
as §1

Another experiment has as its system T19, OR1F1.
T19 sequence (whole entry): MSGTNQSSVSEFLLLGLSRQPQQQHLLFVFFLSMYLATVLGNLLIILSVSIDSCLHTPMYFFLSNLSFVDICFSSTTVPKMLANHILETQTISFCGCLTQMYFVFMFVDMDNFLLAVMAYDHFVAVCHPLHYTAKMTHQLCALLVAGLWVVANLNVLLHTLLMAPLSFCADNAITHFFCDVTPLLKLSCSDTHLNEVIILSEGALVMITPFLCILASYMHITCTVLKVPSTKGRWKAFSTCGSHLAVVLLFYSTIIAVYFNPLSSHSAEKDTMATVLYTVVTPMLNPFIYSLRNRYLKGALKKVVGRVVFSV
Summed up: as §1

For the next experiment, the system named is T20, OR1FC.
T20 sequence (whole entry): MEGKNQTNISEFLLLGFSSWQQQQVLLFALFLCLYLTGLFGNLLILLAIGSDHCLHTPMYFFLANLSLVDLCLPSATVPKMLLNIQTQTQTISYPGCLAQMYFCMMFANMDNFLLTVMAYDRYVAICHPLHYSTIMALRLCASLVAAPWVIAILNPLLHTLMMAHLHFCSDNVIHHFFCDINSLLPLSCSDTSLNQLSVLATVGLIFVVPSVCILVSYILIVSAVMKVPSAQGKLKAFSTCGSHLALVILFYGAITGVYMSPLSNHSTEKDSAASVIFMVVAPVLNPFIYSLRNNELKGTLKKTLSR
The gist of the method: as §1
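Further: active if original authors judged signal statistically different from baseline.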

For the compound `CCCCOC(C)=O`, the “odorant receptor agonist call” value with OR13C3 (Homo sapiens), with OR13C4 (Homo sapiens), in the experiment with OR13C8 (Homo sapiens), with OR13H1 (Homo sapiens), with OR14J1 (Homo sapiens) and with OR1A1 (Homo sapiens) was “inactive” in each case. Also, the “odorant receptor agonist call” value with OR1A1 [1], in the experiment on OR1A1 [3], with OR1A2 (Homo sapiens), with OR1C1 (Homo sapiens), in the experiment with OR1D2 (Homo sapiens) and in the experiment with OR1D5 (Homo sapiens) was “inactive” in each case. Further, the “odorant receptor agonist call” value in the experiment with OR1D5, in the experiment on OR1E1 [4], with OR1E1 [5], with OR1E2 (Homo sapiens), with OR1E2 and in the experiment on OR1F1 was “inactive” each time. Further, the “odorant receptor agonist call” value in the experiment with OR1FC was “inactive”. Also, in the experiment on OR1A1 [2], the “odorant receptor agonist call” value is “active”.

For the compound `CCOc1cc(C=O)ccc1O`, the “odorant receptor agonist call” value with OR1A1 (Homo sapiens) was “inactive”.
